{"sequences": {"note": "Protein sequences, listed by entry. Tags and fused reporters are not part of them. Lines headed by an entry give the natural chain unless they say otherwise; changes in a name come on top.", "UniProt Q9Y3I0": "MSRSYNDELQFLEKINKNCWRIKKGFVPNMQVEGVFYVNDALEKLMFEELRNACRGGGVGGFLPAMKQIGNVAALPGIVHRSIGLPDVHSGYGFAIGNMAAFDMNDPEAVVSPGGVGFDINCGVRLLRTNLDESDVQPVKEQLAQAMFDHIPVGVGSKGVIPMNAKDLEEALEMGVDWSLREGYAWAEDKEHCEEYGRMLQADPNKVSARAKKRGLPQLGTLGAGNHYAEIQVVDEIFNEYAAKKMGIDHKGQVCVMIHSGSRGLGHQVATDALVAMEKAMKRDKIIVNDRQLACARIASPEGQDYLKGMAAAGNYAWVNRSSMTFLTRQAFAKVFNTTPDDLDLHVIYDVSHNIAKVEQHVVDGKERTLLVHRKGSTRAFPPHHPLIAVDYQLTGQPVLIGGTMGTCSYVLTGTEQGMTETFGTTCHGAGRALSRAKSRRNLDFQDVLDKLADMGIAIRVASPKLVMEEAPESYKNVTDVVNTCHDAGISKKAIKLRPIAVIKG", "UniProt Q92499": "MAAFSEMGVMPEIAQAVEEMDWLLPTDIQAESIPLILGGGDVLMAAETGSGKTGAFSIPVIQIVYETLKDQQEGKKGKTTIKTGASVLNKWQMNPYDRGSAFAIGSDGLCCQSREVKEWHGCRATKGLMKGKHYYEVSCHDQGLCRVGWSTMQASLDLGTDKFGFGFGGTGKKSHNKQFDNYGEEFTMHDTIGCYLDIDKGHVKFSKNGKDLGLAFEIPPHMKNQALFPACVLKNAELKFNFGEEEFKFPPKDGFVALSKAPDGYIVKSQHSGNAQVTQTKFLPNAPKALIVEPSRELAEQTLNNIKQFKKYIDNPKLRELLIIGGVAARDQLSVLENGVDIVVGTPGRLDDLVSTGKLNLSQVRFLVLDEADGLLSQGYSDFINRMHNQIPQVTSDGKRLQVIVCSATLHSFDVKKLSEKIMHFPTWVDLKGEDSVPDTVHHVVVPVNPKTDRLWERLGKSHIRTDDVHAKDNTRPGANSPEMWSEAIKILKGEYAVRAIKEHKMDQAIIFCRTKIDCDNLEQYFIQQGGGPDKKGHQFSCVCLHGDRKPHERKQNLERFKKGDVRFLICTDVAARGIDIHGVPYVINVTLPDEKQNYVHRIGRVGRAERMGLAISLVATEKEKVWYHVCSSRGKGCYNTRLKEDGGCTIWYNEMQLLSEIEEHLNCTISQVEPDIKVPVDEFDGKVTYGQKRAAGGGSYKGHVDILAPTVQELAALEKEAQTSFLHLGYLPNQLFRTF", "UniProt Q52LJ0": "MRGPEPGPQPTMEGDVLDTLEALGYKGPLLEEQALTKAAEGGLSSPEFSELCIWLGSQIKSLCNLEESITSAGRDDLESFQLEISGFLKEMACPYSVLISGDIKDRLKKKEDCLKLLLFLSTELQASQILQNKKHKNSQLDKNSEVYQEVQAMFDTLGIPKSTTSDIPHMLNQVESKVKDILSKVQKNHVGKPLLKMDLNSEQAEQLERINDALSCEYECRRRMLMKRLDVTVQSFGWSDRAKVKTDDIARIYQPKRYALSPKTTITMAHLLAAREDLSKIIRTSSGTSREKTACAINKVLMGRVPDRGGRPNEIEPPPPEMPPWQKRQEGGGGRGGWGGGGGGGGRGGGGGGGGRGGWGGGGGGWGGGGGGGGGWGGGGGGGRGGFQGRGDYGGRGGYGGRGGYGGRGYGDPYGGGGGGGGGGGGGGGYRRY", "UniProt Q9Y224": "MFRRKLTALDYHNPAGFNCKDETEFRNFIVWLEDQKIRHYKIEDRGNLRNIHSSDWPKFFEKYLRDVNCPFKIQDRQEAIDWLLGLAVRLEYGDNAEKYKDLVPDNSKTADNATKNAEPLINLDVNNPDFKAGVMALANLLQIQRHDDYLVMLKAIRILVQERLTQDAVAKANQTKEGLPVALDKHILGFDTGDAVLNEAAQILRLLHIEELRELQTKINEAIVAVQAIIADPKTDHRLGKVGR"}, "source": "paper PMC8668186", "about": "“Molecular architecture of the human tRNA ligase complex” (eLife, 2021)", "target": "core tRNA-LC (RTCB:DDX1:FAM98B:CGI-99) (human) (UniProt Q9Y3I0+Q92499+Q52LJ0+Q9Y224)", "assay": "SEC; 2.5 nmol tRNA-LC (RTCB, DDX1, FAM98B, CGI-99) mixed with 5 nmol Archease, 30 min on ice; Superdex 200 10/300 in 20 mM HEPES pH 8.0, 250 mM KCl, 1 mM DTT; peak fractions on SDS-PAGE; both purified", "note": "Results are given in words; binding and its absence hold for the method and conditions named."}
{"binder": "Archease (domain or fragment, UniProt Q8IWT0 27-167) VNRKYEYLDHTADVQLHAWGDTLEEAFEQCAMAMFGYMTDTGTVEPLQTVEVETQGDDLQSLLFHFLDEWLYKFSADEFFIPREVKVLSIDQRNFKLRSIGWGEEFSLSKHPQGTEVKAITYSAMQVYNEENPEVFVIIDI", "values": [{"measurement": "binding", "value": "no binding (tested: 2.5 nmol of tRNA-LC with 5 nmol Archease)"}]}
